Test [1] concerns the target ADAM10/N278Q-Flag (UniProt O14672). As to the kind of experiment: co-IP; reciprocal co-IP (anti-Flag IP and IP/IB) of Flag-tagged ADAM10 mutants with endogenous proteins in SK-BR-3 cells; treatments in some panels: Eer I, Eer I + TM, HRD1 silencing.
Test [2] shares this target. Briefly: proximity ligation; PLA between ADAM10-N278Q-Flag and HRD1 in cells upon Eer I or Eer I + TM treatment; foci counted.

Protein sequences, listed by entry. Tags and fused reporters are not part of them. Lines headed by an entry give the natural chain unless they say otherwise; changes in a name come on top.
UniProt O14672: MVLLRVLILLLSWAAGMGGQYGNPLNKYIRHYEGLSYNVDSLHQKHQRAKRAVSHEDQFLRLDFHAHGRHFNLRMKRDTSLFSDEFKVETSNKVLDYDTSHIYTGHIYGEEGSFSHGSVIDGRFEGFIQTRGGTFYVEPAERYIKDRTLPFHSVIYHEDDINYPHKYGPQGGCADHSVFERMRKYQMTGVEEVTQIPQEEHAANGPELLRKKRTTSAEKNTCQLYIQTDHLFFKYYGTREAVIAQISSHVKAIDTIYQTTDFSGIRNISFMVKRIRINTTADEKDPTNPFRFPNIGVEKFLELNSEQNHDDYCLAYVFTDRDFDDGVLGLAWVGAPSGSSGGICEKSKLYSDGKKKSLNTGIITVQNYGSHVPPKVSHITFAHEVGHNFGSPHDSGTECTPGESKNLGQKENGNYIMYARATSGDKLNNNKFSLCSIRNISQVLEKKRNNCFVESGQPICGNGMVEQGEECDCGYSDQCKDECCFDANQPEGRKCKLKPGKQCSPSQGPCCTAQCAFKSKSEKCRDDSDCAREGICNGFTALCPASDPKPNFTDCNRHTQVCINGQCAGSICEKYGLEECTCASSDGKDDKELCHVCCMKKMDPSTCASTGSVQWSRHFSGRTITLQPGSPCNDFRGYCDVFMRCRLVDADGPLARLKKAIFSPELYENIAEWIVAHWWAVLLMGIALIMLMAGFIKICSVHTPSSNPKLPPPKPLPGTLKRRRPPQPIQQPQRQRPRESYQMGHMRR
UniProt Q86TM6: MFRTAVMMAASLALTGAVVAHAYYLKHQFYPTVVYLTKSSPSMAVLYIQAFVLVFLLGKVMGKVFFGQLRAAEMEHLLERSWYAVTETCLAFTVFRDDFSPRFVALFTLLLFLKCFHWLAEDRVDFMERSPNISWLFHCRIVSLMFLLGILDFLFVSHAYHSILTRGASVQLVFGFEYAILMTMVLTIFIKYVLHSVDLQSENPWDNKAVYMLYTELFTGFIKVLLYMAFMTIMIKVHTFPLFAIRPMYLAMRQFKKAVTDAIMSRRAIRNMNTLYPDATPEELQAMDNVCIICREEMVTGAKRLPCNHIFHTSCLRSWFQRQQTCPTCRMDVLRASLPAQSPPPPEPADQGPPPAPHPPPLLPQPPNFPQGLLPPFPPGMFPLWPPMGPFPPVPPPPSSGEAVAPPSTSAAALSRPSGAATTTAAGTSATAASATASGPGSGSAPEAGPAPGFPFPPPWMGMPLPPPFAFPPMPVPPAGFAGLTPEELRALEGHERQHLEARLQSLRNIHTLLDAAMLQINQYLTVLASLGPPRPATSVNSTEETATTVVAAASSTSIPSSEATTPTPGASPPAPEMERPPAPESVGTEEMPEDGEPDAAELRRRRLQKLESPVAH

Results are given in words; binding and its absence hold for the method and conditions named. In cells and extracts the contact can be indirect. A result given as binding can be weak or reduced; the word gives no strength.

“synoviolin 1 (SYVN1, also known as HRD1) (from UniProt Q86TM6 1-617) (enzyme)”: the binding result in the test with ADAM10/N278Q-Flag [1] and in the test with ADAM10/N278Q-Flag [2] was “binds” in each case.

These data come from PMC10348774.
